The values that follow come from US20180216060A1 (ACADEMISCH ZIEKENHUIS LEIDEN (ALSO ACTING UNDER THE NAME OF …, priority 2015, published 2018).

This data set can be described thus: general procedure: Fmoc solid-phase peptide synthesis; Rink amide resin; PyBOP. Particulars: whole synthesis, scale 15 μmol.

Turning to “Fmoc-Lys(Fmoc)-Thr(tBu)-Gly-Arg(Pmc)-Ala-Lys(Boc)-Arg(Pmc)-Arg(Pmc)-Met-Gln(Trt)-Tyr(tBu)-Ans(Trt)-Arg(Pmc)-Arg(Pmc)”, the crude mass stood at 35 mg, the isolated mass was 16 mg and the isolated yield turned out to be 36%.
